Here are results for one compound from publication PMC7005530, “A selective androgen receptor modulator SARM‐2f activates androgen receptor, increases lean body mass, and suppresses blood lipid levels in cynomolgus monkeys” (Pharmacology Research & Perspectives, 2020).

A short description of the test: Effects on body weight and lean body mass, 4-week administration. The format is in vivo, cynomolgus monkey. The following applies: 10 mg/kg daily p.o., Day 13, male monkeys n = 3.

SMILES strings stand for the structures. For part of its entries the source gives two or more results. Only these are listed. The source may hold further records. The values listed for one entry differ for a reason that is not stated; they may come from other doses, times, organisms or constructs than stated.

As for `CC[C@H]1[C@@H](O)CC(=O)N1c1ccc(C#N)c(C(F)(F)F)c1` [SARM‐2f, 4′‐[(2S,3S)‐2‐Ethyl‐3‐hydroxy‐5‐oxopyrrolidin‐1‐yl]‐2′‐(trifluoromethyl) benzonitrile], the “BW increase from pre‐dosing level” value is 8.7% and not significantly increased.
